Measured values reported in PubChem BioAssay AID2685 (National Center for Advancing Translational Sciences (NCATS), 2010).
The list shows a part of the results. The main result of the screen is listed elsewhere. These columns were measured beside it and carry no call. Compounds called inactive in the main read-out are mostly missing here. Words in brackets tell the shape of the fitted curve; partial curves, single points and poor fits give uncertain potencies.

Assay: qHTS Assay for Lipid Storage Modulators in Drosophila S3 Cells;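 as to cell number change: cells counted by Cell Tracker Red CMTPX staining in the red channel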
Details: BODIPY lipid droplet fluorescence, 18-24 h; for cell number change: measured here: cell count max response, cells fed with added oleic acid
Summary of the method: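 Laser-scanning cytometry quantifies lipid droplet accumulation (500–530 nm total intensity; droplet/cell object ratio) in oleic acid-fed (400 uM added) Drosophila S3 cells treated with a concentration series. 20 uM Triacsin C defined 100% inhibition.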

[1] = measured here: lipid fluorescence (Fed channel) AC50, cells fed with added oleic acid
[2] = measured here: cell number channel AC50, cells fed with added oleic acid

| Compound | cell number change | AC50 [1] | AC50 [2] |
| --- | --- | --- | --- |
| CC(NC(=O)C1CC1)C(c1cccs1)N1CCOCC1 (centres undefined) | -25.5% | 20.6 µM [falling, single point] | – |
| O=C(NCc1n[nH]c(=O)c2ccccc12)C1CC(=O)N(c2ccccc2)C1 (centres undefined) | 22.2% | – | – |
| O=C(CN(C(=O)c1nsc(Cl)c1Cl)c1cccc(F)c1)NC1CCCC1 | 0.901% | 6.51 µM [falling, partial curve] | – |
| O=C(O)c1cc(-c2ccc(N3CCOCC3)cc2)nn1-c1ccccc1Cl | 10.3% | 0.116 µM [falling, full curve] | 0.184 µM [falling, full curve] |
| O=S(=O)(c1ccccc1)N(CC1CO1)c1cc(Cl)ccc1Cl (centres undefined) | -31% | – | 11.6 µM [falling, single point] |
| CC1(C)CC(=O)C(C=NCC2CCN(C(=S)Nc3cccc(Cl)c3)CC2)=C(O)C1 | -5.22% | – | – |
| Cc1ccc(S(=O)(=O)NCCOCCNS(=O)(=O)c2ccc(C)cc2)cc1 | 3.74% | – | 0.0461 µM [rising, partial curve] |
| CCOc1cccc(-c2c(C(=O)N/N=C(\C)c3ccccn3)nnn2-c2nonc2N)c1 | – | – | 0.0058 µM [falling, full curve, poor fit] |
| CC1=C(C(=O)OCc2ccccc2)C(c2ccc(C)o2)C2=C(CCCC2=O)N1 (centres undefined) | 231% | 0.58 µM [rising, single point] | – |
| O=C(Nc1nnc(-c2ccc(F)cc2)s1)c1c(F)cccc1Cl | -2.31% | – | – |
| CC(C)c1ccc(NC(=O)COc2ccccn2)cc1 | -61.7% | – | 41.1 µM [falling, partial curve, poor fit] |
| Cc1ccc(OCCCCc2c(C)n[nH]c2C)cc1 | -30.5% | 29.1 µM [falling, single point] | 14.6 µM [falling, partial curve] |
| Cc1cccc(NC2=C(Cl)C(=O)OC2NC(=O)c2ccccc2)c1 (centres undefined) | 15.4% | – | – |
| CCCN1CCN(C(=S)Nc2ccc(SC(F)F)cc2)CC1 | 6.72% | – | – |
| O=S(=O)(NCc1ccc2c(c1)OCO2)c1ccc(F)c(F)c1 | -3.59% | 29.1 µM [falling, single point] | – |
| Cc1ccc(-c2nnn(CC(=O)N(c3ccccc3)C(C(=O)NCC3CCCO3)c3ccc(Cl)cc3)n2)cc1 (centres undefined) | 10.1% | – | – |
| O=C(c1ccc([N+](=O)[O-])s1)N1CCN(c2ccccn2)CC1 | -19% | – | – |
| Cc1ccc(NC(=O)CCNC(=O)c2ccccc2)cc1F | -1.32% | – | – |
| c1ccc(-c2nc(CSc3n[nH]c(-c4cccs4)n3)cs2)cc1 | 37.7% | – | 29.1 µM [rising, single point] |
| CC(CN(C)Cc1ccccc1)OC(=O)c1cccc(F)c1 (centres undefined) | -4.35% | – | – |
| CCOC(=O)C1=C(CN2CCN(C(=O)c3ccco3)CC2)NC(=O)NC1c1ccc(OC)cc1 (centres undefined) | – | 0.58 µM [falling, single point] | – |

Structures listed so far that have a furan ring, fused or not:

| Compound | cell number change | AC50 [1] | AC50 [2] |
| --- | --- | --- | --- |
| CC1=C(C(=O)OCc2ccccc2)C(c2ccc(C)o2)C2=C(CCCC2=O)N1 (centres undefined) | 231% | 0.58 µM [rising, single point] | – |
| CCOC(=O)C1=C(CN2CCN(C(=O)c3ccco3)CC2)NC(=O)NC1c1ccc(OC)cc1 (centres undefined) | – | 0.58 µM [falling, single point] | – |

Remaining list, next part

| Compound | cell number change | AC50 [1] | AC50 [2] |
| --- | --- | --- | --- |
| Cc1nn(-c2ccccc2)c2sc(C(=O)OCC(=O)N3CCCCC3)cc12 | 2% | 29.1 µM [rising, single point] | – |
| Cc1noc(C)c1COc1ccc(C(=O)N2CCN(c3ccccc3F)CC2)cc1 | 71.7% | – | 18.4 µM [rising, single point] |
| CN(C)C(CNc1ncnc2ccccc12)c1c(F)cccc1Cl (centres undefined) | 10.9% | – | – |
| Cc1ccc(CNC(=O)Cn2c([N+](=O)[O-])cnc2C)cc1 | – | – | 0.82 µM [falling, single point] |
| Cc1ccc(/C=[N+](/[O-])C2SC(=S)N(C)C2(C)C)cc1 (centres undefined) | -59.9% | 8.2 µM [falling, partial curve] | 4.61 µM [falling, full curve, poor fit] |
| CCCCc1nnc(NC(=O)c2ccc(-n3cncn3)c([N+](=O)[O-])c2)s1 | 58% | – | – |
| CCCOc1ccc2c3c(c(=O)oc2c1)CCCC3 | -8.2% | 32.6 µM [rising, single point] | – |
| Cc1sc2ncnc(NCC(O)c3ccccc3)c2c1C (centres undefined) | 15.4% | – | – |
| CSc1ncccc1C(=O)Nc1ccc(S(=O)(=O)N2CCCC2)cc1 | -7.65% | 0.0517 µM [rising, full curve, poor fit] | – |
| Cc1ccc(OCC(=O)NCCCNC(=O)c2ccc(C)nc2)cc1 | 0.87% | – | – |
| CC(C)COc1ccc2[nH]c3c(c2c1)CCCC3=O | 36.3% | 6.51 µM [rising, single point] | 11.6 µM [rising, partial curve] |
| CC(=O)NCN1CCN(CNC(C)=O)CC1 | 19.5% | 0.00461 µM [falling, full curve, poor fit] | – |
| O=C(c1ccc2c(=O)n(-c3ccccc3)c(=O)[nH]c2c1)N1CCN(c2ccc(F)cc2)CC1 | -5.07% | – | – |
| CCc1ccccc1NC(=O)C1=CN2CCS(=O)(=O)N=C2C=C1 | -8% | – | – |
| COc1cc2cc(CCOC(=O)c3ccc(C#N)cc3)oc(=O)c2cc1OC | 1.1% | 1.16 µM [falling, single point] | 1.16 µM [falling, single point] |
| O=C(N/N=C/c1c(O)ccc2ccccc12)c1cccc(C(F)(F)F)c1 | 55.8% | 29.1 µM [falling, single point] | 9.2 µM [rising, single point] |
| CCOc1ccc(N(CC(=O)NC2CCCCC2)C(=O)CNC(=O)c2cccs2)cc1 | 5.04% | 0.116 µM [falling, single point] | – |
| CCCCC1OC23CCCCC2C(C#N)(C(=N)O3)C1(C#N)C#N (centres undefined) | -27.6% | 0.0651 µM [falling, full curve, poor fit] | 0.731 µM [falling, full curve] |
| COc1cc(C(=O)Nc2ccc(C)cn2)c([N+](=O)[O-])cc1OC | 8.25% | 6.51 µM [rising, single point] | 6.51 µM [rising, single point] |
| Cc1ccccc1C(=O)Nc1ccc(Cl)cn1 | -11.9% | – | – |
| O=C(COc1ccccc1Cl)Nc1ccc(N2CCN(C(=O)c3ccccc3)CC2)cc1 | -31.4% | 0.461 µM [rising, full curve, poor fit] | 29.1 µM [falling, single point] |
